According to PubChem BioAssay AID2685 (National Center for Advancing Translational Sciences (NCATS), 2010):
This is one part of the list. Further columns of the screen follow, without active or inactive calls. Most of these compounds were active or inconclusive in the main read-out, so they are no random draw. The note in brackets gives the kind of curve behind each potency; many fits are weak.

Experiment: qHTS Assay for Lipid Storage Modulators in Drosophila S3 Cells;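 for cell number change: cells counted by Cell Tracker Red CMTPX staining in the red channel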
Conditions: BODIPY lipid droplet fluorescence, 18-24 h; for cell number change: measured here: cell count max response, cells fed with added oleic acid
How it was run: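 Drosophila S3 cells loaded with oleic acid (400 uM, as added) and compounds at several concentrations; lipid droplets imaged by 488-nm laser-scanning cytometry, 500–530 nm intensity and object ratio to cell channel. Percent activity normalized to 20 uM Triacsin C.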

[1] = measured here: lipid fluorescence (Fed channel) AC50, cells fed with added oleic acid
[2] = measured here: cell number channel AC50, cells fed with added oleic acid

## COc1ccc(CSCC(=O)N/N=C/c2ccccc2O)cc1
  cell number change: -45.6%
[1]
  AC50: 29.1 µM [falling, single point]

## CC(=O)Nc1ccc(OC(F)(F)C(F)F)c(NC(C)=O)c1
  cell number change: -1.13%
[1]
  AC50: 6.51 µM [falling, single point]

## CCOc1ccccc1Nc1nnc(SCC(=O)Nc2ccc3[nH]c(=O)[nH]c3c2)s1
  cell number change: 16.6%
[1]
  AC50: 18.4 µM [rising, partial curve, poor fit]

## Cc1cc(C)nc(SCC(=O)Nc2ccc(S(=O)(=O)NCCO)cc2)n1
  cell number change: 15.8%

## O=C(CSc1nnc(CNc2ccc(F)cc2)o1)N1CCN(C(=O)c2ccco2)CC1
  cell number change: 13%
[1]
  AC50: 5.8 µM [rising, partial curve, poor fit]

## NC(=O)C1CCN(C(=O)c2cc3ccccc3cc2O)CC1
  cell number change: 47.9%
[2]
  AC50: 29.1 µM [rising, single point]

## CC1(C)CC(=O)C2=C(C1)OC(N)=C(C#N)C21C(=O)N2CCCc3cccc1c32 (centres undefined)
[2]
  AC50: 1.3 µM [rising, partial curve, poor fit]

## O=[N+]([O-])c1cc(NS(=O)(=O)c2ccc(Cl)nc2)ccc1Cl
  cell number change: -6.09%
[1]
  AC50: 6.51 µM [rising, single point]

## CCn1c(CNc2ccc(Cl)cc2)nnc1SCC(=O)NCc1ccccc1
  cell number change: -12.8%
[1]
  AC50: 18.4 µM [rising, single point]

## O=C(COC(=O)c1cnccn1)c1ccc([N+](=O)[O-])cc1
  cell number change: -19.7%
[2]
  AC50: 6.51 µM [falling, single point]

## COc1ccc(-n2c(-c3ccc(F)cc3)cnc2SCC(=O)NCc2ccco2)cc1
  cell number change: -0.885%
[1]
  AC50: 20.6 µM [rising, partial curve]

## Cn1ccnc1C1CCCCN1C(=O)c1cc(COc2ccc(F)cc2F)on1 (centres undefined)
  cell number change: 17.3%
[1]
  AC50: 0.651 µM [rising, full curve, poor fit]

## COc1ccc(OCC(=O)Nc2ccc(S(=O)(=O)Nc3cc(C)nc(C)n3)cc2)cc1
  cell number change: -47.9%
[2]
  AC50: 18.4 µM [falling, single point]

## CCC(C)NCCCCOc1ccc(Br)cc1 (centres undefined)
  cell number change: 42.2%
[2]
  AC50: 16.4 µM [rising, single point]
[1]
  AC50: 5.17 µM [rising, partial curve, poor fit]

## COc1ccccc1NC(=O)c1cnc(Nc2ccccc2OC)c2ccccc12
  cell number change: 3.94%
[1]
  AC50: 5.8 µM [rising, full curve]

## CCCCC1(C)OC(=O)C(=Cc2ccc(SC)cc2)C(=O)O1 (centres undefined)
  cell number change: 32.2%
[2]
  AC50: 0.146 µM [rising, full curve]
[1]
  AC50: 0.146 µM [rising, full curve, poor fit]

## C/C(=C/c1ccccc1)C(=O)N1CCC(C)CC1
  cell number change: -11.3%

## Cc1ccc(NC(=O)NC2CC(=O)N(c3ccc4c(c3)OCCO4)C2)cc1F (centres undefined)
[2]
  AC50: 2.59 µM [rising, partial curve, poor fit]

## CCOC(=O)c1c(C)[nH]c(C)c1S(=O)(=O)N(C)CC(=O)Nc1cc(C)ccc1OC
  cell number change: 2.09%
[1]
  AC50: 0.326 µM [falling, partial curve, poor fit]

## CCN1CCN(c2cc3nc(C)n(Cc4ccccc4)c(=O)c3cc2NC(=O)c2ccccc2F)CC1
  cell number change: -51.6%
[2]
  AC50: 6.51 µM [falling, full curve]
[1]
  AC50: 7.31 µM [falling, partial curve]

## Cc1cccc(N(Cc2ccccc2)C(=O)C2CCN(C(=O)c3ccccc3C)CC2)c1
  cell number change: -5.53%
[1]
  AC50: 29.1 µM [falling, single point]

## CN1C(=O)c2ccccc2C(C(=O)NCc2ccco2)C1c1c[nH]c2ccccc12 (centres undefined)
  cell number change: -39.2%
[2]
  AC50: 32.6 µM [falling, single point]
[1]
  AC50: 0.731 µM [rising, single point]

## Cc1cc(NC(=O)c2ccco2)ncc1NC(=O)Cc1ccccc1
  cell number change: 7.85%
[1]
  AC50: 0.231 µM [rising, full curve, poor fit]

## CCc1c(C)nc2ncnn2c1N1CCC(C(=O)NCc2ccc3c(c2)OCO3)CC1
  cell number change: 9.49%
[1]
  AC50: 1.16 µM [rising, full curve, poor fit]

## O=S(=O)(NCc1csc(-c2cccnc2)n1)c1cccs1
[1]
  AC50: 0.651 µM [rising, single point]

## COC(CNC(=O)C(=O)Nc1ccc2c(c1)N(S(=O)(=O)c1cccs1)CCC2)OC
  cell number change: 49.5%
[2]
  AC50: 16.4 µM [rising, single point]

## O=C(CSc1nc2ccccc2c(=O)n1CCCN1CCOCC1)N1CCN(c2ccccc2)CC1
  cell number change: 39.5%
[2]
  AC50: 29.1 µM [rising, single point]
[1]
  AC50: 6.51 µM [falling, partial curve, poor fit]

## CCC(C)[C@H]1CNCCN1CCc1cccc2ccccc12 (some centres undefined)
  cell number change: -14.6%
[1]
  AC50: 6.51 µM [rising, single point]

## Cc1cc(OC(=O)c2cc(Cl)ccc2Cl)c([N+](=O)[O-])c(=O)[nH]1
  cell number change: 27.8%
[1]
  AC50: 0.731 µM [falling, full curve]

## CCOc1ccc(CCNC(=O)CCOc2cc(C)ccc2C)cc1OCC
  cell number change: 8.33%

## CCOC(=O)c1c(S(=O)(=O)N(C)Cc2ccco2)c(C)n(C)c1C
  cell number change: 7.55%
[1]
  AC50: 6.51 µM [falling, single point]

## Cn1c(CN2CCCC2)nc2cc(NC(=O)COc3ccc(Cl)cc3)ccc21
  cell number change: 11.6%
[1]
  AC50: 5.17 µM [rising, single point]

## CC1CCCCC1NC(=O)c1c(O)nc2ccccn2c1=O (centres undefined)
  cell number change: -33.9%
[2]
  AC50: 32.6 µM [falling, single point]
[1]
  AC50: 29.1 µM [falling, single point]

## COc1cccc(-c2nc(CS(=O)(=O)CC(=O)Nc3ccccc3Br)c(C)o2)c1
  cell number change: 11.8%
[1]
  AC50: 23.1 µM [falling, single point]

## Cc1cc(NCCN2CCOCC2)n2ncc(-c3ccccc3)c2n1
[2]
  AC50: 5.17 µM [rising, single point]
[1]
  AC50: 0.103 µM [falling, full curve, poor fit]

## Cc1ccc(C(=O)n2nc(-c3cccnc3)nc2N)cc1
  cell number change: -0.806%
[2]
  AC50: 0.517 µM [rising, full curve]

## Cc1nn(-c2ccc(N3CCOCC3)nn2)c(C)c1CCC(=O)NCc1ccccc1F
  cell number change: -17.1%
[1]
  AC50: 0.103 µM [falling, partial curve, poor fit]
